Results are given in words; binding and its absence hold for the method and conditions named. Some entries that bind do so weakly or less than the wild type.

The chains behind the UniProt entries cited, without tags or fusion partners. Where a name states a change or a piece, a line headed by the entry shows the natural chain unless it says otherwise. Residues count along the entry.
UniProt P02458, residues 26-181: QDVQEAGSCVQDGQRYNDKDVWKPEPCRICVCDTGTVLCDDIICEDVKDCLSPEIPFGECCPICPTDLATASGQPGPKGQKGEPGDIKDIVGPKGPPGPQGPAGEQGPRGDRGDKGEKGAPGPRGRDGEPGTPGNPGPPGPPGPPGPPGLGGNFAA
UniProt P35248: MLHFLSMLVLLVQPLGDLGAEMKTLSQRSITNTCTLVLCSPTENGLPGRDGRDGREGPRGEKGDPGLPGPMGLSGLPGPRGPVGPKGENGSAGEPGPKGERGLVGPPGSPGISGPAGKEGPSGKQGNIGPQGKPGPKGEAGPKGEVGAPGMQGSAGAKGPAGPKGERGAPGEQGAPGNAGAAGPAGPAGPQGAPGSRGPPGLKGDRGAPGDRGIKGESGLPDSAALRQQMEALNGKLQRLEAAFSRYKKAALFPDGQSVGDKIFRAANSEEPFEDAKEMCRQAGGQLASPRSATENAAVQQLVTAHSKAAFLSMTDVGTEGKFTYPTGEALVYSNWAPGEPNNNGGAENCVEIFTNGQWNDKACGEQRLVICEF

Assay [1] concerns the target IIA NH2-propeptide purified after MMP-9 cleavage of the IIA/SP-D fusion protein (human) (UniProt P02458). The assay is described as follows: self-association; BS3 cross-linking, SDS-PAGE.
Assay [2] concerns the target T1, mIIA-218 (human; rat) (UniProt P02458+P35248). Nature of the assay: self-association; BS3 cross-linking, anti-IIA immunoblot.
Assay [3] has as its target T1, mIIA-218 (human; rat). The assay is described as follows: self-association; BS3 cross-linking, anti-IIA Western blot.
For assay [4], the target named is T2, mIIA-225 (human; rat) (UniProt P02458+P35248). The assay is described as follows: self-association; BS3 cross-linking, anti-IIA immunoblot.
Assay [5] addresses T2, mIIA-225 (human; rat). The assay is described as follows: self-association; BS3 cross-linking, anti-IIA Western blot. (In general: Immunoblotting shows a protein as a band on a membrane.)
The target in assay [6] is T3, mIIA-237 (human; rat) (UniProt P02458+P35248). Nature of the assay: self-association; BS3 cross-linking, anti-IIA immunoblot.
Assay [7] concerns the target T3, mIIA-237 (human; rat). Nature of the assay: self-association; BS3 cross-linking, anti-IIA Western blot.

As for “IIA NH2-propeptide purified after MMP-9 cleavage of the IIA/SP-D fusion protein (from UniProt P02458 26-181)”, the binding entry in assay [1] was “binds”.
Turning to “mIIA-218 (from UniProt P02458 26-203; P35248 222-236)”, the binding result in assay [2] and in assay [3] was “binds” throughout.
For “mIIA-225 (from UniProt P02458 26-203; P35248 222-243)”, the binding entry in assay [4] and in assay [5] was “binds” each time.
As for “mIIA-237 (from UniProt P02458 26-203; P35248 222-255)”, the binding entry in assay [6] and in assay [7] was “binds” throughout.

For the origin of these results see patent US20080166798A1.
